Laboratory results taken from patent US10457707B2 (priority 2015, dated 2019).

Assay: general procedure: solution-phase peptide synthesis; TPTU/HOBT/DIEA; HATU/DIEA
Settings: late stage modification step

| Substance | step yield | step yield (on macrocycle C) | other results |
| --- | --- | --- | --- |
| (2R,6S,8aS,14aS,16R,20S,21S,23aS)-20-((S)-3-(3,5-difluorophenyl)-2-(3-(p-tolyl)ureido)propanamido)-2,6,21-trimethyl-5,8,14,19,23-pentaoxooctadecahydro-1H,5H,14H,19H-pyrido[2,1-i]dipyrrolo[2,1-c:2′,1′-l][1]oxa[4,7,10,13] | about 25% |  |  |
| (2S)-3-(3,5-difluorophenyl)-2-(3-(4-ethylphenyl)ureido)-N-((6S,9S,11aS,17S,18S)-6,9,10,18-tetramethyl-5,8,11,16,20-pentaoxohexadecahydro-1H,5H,16H-dipyrrolo[2,1-c:2′,1′-l][1]oxa[4,7,10,13]tetraazacyclohexadecin-17-yl)propanamide |  | 36.1% |  |
| (2S)-3-(3,5-difluorophenyl)-N-((2S,6S,9S,11aS,17S,18S)-2,6,9,10,18-pentamethyl-5,8,11,16,20-pentaoxohexadecahydro-1H,5H,16H-dipyrrolo[2,1-c:2′,1′-l][1]oxa[4,7,10,13]tetraazacyclohexadecin-17-yl)-2-(3-(p-tolyl)ureido)propanamide |  | 16.9% |  |
| (2S)-3-(3,5-difluorophenyl)-N-((6S,9S,11aS,17S,18S)-6,9,10,18-tetramethyl-5,8,11,16,20-pentaoxohexadecahydro-1H,5H,16H-dipyrrolo[2,1-c:2′,1′-l][1]oxa[4,7,10,13]tetraazacyclohexadecin-17-yl)-2-(3-(4-(trifluoromethoxy)phenyl)ureido)propanamide |  | 16% |  |
| (2S)-3-(3,5-difluorophenyl)-N-((6S,9S,11aS,17S,18S)-6,9,10,18-tetramethyl-5,8,11,16,20-pentaoxohexadecahydro-1H,5H,16H-dipyrrolo[2,1-c:2′,1′-l][1]oxa[4,7,10,13]tetraazacyclohexadecin-17-yl)-2-(3-(p-tolyl)ureido)propanamide |  | 30.7% |  |
| (2S)-3-phenyl-2-(3-(4-(trifluoromethoxy)phenyl)ureido)-N-((6S,9S,11aS,17S)-6,9,10-trimethyl-5,8,11,16,20-pentaoxohexadecahydro-1H,5H,16H-dipyrrolo[2,1-c:2′,1′-l][1]oxa[4,7,10,13]tetraazacyclohexadecin-17-yl)propanamide | 40.6% |  |  |
| (2S,6S,9S,11aS,13R,17S,18S,20aS)-17-((S)-3-(3,5-difluorophenyl)-2-(3-(p-tolyl)ureido)propanamido)-2,6,9,10,18-pentamethyl-5,8,11,16,20-pentaoxohexadecahydro-1H,5H,16H-dipyrrolo[2,1-c:2′,1′-l][1]oxa[4,7,10,13]tetraazacyclohexadecin | about 14% |  |  |
| (6aS,8R,12S,13S,15aS,17R,21S,23aS)-12-((S)-3-(3,5-difluorophenyl)-2-(3-(3,4-dimethylphenyl)ureido)propanamido)-13,17,21-trimethyl-6,11,15,20,23-pentaoxooctadecahydro-6H,11H,15H-[1,4]oxazino[3,4-i]dipyrrolo[2,1-c:2′,1′-L][1]oxa | about 27% |  |  |
| (S)-2-(3-(2-chlorophenyl)ureido)-N-((2R,6S,8aS,14aS,20S,23aS)-2,6-dimethyl-5,8,14,19,23-pentaoxooctadecahydro-1H,5H,14H,19H-pyrido[2,1-i]dipyrrolo[2,1-c:2′,1′-l][1]oxa[4,7,10,13]tetraazacyclohexadecin-20-yl)-3-phenylpropanamide | 14.5% |  |  |
| (S)-2-(3-(3-chlorophenyl)ureido)-N-((2R,6S,8aS,14aS,20S,23aS)-2,6-dimethyl-5,8,14,19,23-pentaoxooctadecahydro-1H,5H,14H,19H-pyrido[2,1-i]dipyrrolo[2,1-c:2′,1′-l][1]oxa[4,7,10,13]tetraazacyclohexadecin-20-yl)-3-phenylpropanamide | 24.9% |  |  |
| (S)-2-(3-(4-chlorophenyl)ureido)-N-((2R,6S,8aS,14aS,20S,23aS)-2,6-dimethyl-5,8,14,19,23-pentaoxooctadecahydro-1H,5H,14H,19H-pyrido[2,1-i]dipyrrolo[2,1-c:2′,1′-l][1]oxa[4,7,10,13]tetraazacyclohexadecin-20-yl)-3-phenylpropanamide | 49.7% |  |  |
| (S)-2-(3-(benzo[d][1,3]dioxol-5-yl)ureido)-3-(3,5-difluorophenyl)-N-((2R,6S,8aS,14aS,20S,21S,23aS)-2,6,21-trimethyl-5,8,14,19,23-pentaoxooctadecahydro-1H,5H,14H,19H-pyrido[2,1-i]dipyrrolo[2,1-c:2′,1′-l][1]oxa[4,7,10,13]tetraazacyclohexadecin-20-yl)propanamide | 29% |  | step yield (on macrocycle C, run 1): 29%; step yield (on macrocycle C, run 2): 83% |
| (S)-2-(3-(benzo[d][1,3]dioxol-5-yl)ureido)-3-(3,5-difluorophenyl)-N-((2R,6S,9S,11aS,17S,18S,20aS)-9-((R)-1-hydroxyethyl)-2,6,10,18-tetramethyl-5,8,11,16,20-pentaoxohexadecahydro-1H,5H,16H-dipyrrolo[2,1-c:2′,1′-l][1]oxa[4,7,10,13]tetraazacyclohexadecin-17-yl)propanamide |  | 84% |  |
| (S)-2-(3-(benzo[d][1,3]dioxol-5-yl)ureido)-3-(3,5-difluorophenyl)-N-((6aS,12S,13S,15aS,17R,21S,23aS)-13,17,21-trimethyl-6,11,15,20,23-pentaoxooctadecahydro-6H,11H,15H-[1,4]oxazino[3,4-i]dipyrrolo[2,1-c:2′,1′-l][1]oxa[4,7,10,13]tetraazacyclohexadecin-12-yl)propanamide |  | 64.2% |  |
| (S)-2-(3-(benzo[d][1,3]dioxol-5-yl)ureido)-N-((2R,6S,8aS,14aS,20S,23aS)-2,6-dimethyl-5,8,14,19,23-pentaoxooctadecahydro-1H,5H,14H,19H-pyrido[2,1-i]dipyrrolo[2,1-c:2′,1′-l][1]oxa[4,7,10,13]tetraazacyclohexadecin-20-yl)-3-phenylpropanamide |  | 25.2% |  |
| (S)-3-(3,5-difluorophenyl)-2-(3-(1-methylindolin-6-yl)ureido)-N-((2R,6S,8aS,14aS,20S,21S,23aS)-2,6,21-trimethyl-5,8,14,19,23-pentaoxooctadecahydro-1H,5H,14H,19H-pyrido[2,1-i]dipyrrolo[2,1-c:2′,1′-l][1]oxa[4,7,10,13]tetraazacyclo-hexadecin-20-yl)propanamide | 24.7% |  |  |
| (S)-3-(3,5-difluorophenyl)-2-(3-(4-(trifluoromethoxy)phenyl)ureido)-N-((2R,6S,8aS,14aS,20S,21S,23aS)-2,6,21-trimethyl-5,8,14,19,23-pentaoxooctadecahydro-1H,5H,14H,19H-pyrido[2,1-i]dipyrrolo[2,1-c:2′,1′-L][1]oxa[4,7,10,13]tetraazacyclohexadecin-20-yl)propanamide |  | 68.3% |  |
| (S)-3-(3,5-difluorophenyl)-2-(3-(4-(trifluoromethoxy)phenyl)ureido)-N-((2R,6S,8aS,14aS,20S,21S,23aS)-2,6,21-trimethyl-5,8,14,19,23-pentaoxooctadecahydro-1H,5H,14H,19H-pyrido[2,1-i]dipyrrolo[2,1-c:2′,1′-l][1]oxa[4,7,10,13]tetraazacyclohexadecin-20-yl)propanamide | 39% |  |  |
| (S)-3-(3,5-difluorophenyl)-2-(3-(4-(trifluoromethoxy)phenyl)ureido)-N-((6aS,12S,13S,15aS,17S,21S,23aS)-13,17,21-trimethyl-6,11,15,20,23-pentaoxooctadecahydro-6H,11H,15H-[1,4]oxazino[3,4-i]dipyrrolo[2,1-c:2′,1′-l][1]oxa[4,7,10,13]tetraazacyclohexadecin-12-yl)propanamide |  | 43.6% |  |
| (S)-3-(3,5-difluorophenyl)-2-(3-(4-(trifluoromethyl)phenyl)ureido)-N-((2R,6S,8aS,14aS,20S,21S,23aS)-2,6,21-trimethyl-5,8,14,19,23-pentaoxooctadecahydro-1H,5H,14H,19H-pyrido[2,1-i]dipyrrolo[2,1-c:2′,1′-l][1]oxa[4,7,10,13]tetraazacyclohexadecin-20-yl)propanamide | 33% |  |  |
| (S)-3-(3,5-difluorophenyl)-2-(3-(4-ethylphenyl)ureido)-N-((2R,6S,9S,11aS,17S,18S,20aS)-9-((R)-1-hydroxyethyl)-2,6,10,18-tetramethyl-5,8,11,16,20-pentaoxohexadecahydro-1H,5H,16H-dipyrrolo[2,1-c:2′,1′-l][1]oxa[4,7,10,13]tetraazacyclohexadecin-17-yl)propanamide |  | 65.1% |  |
| (S)-3-(3,5-difluorophenyl)-2-(3-(4-ethylphenyl)ureido)-N-((2S,6S,9S,11aS,17S,18S,20aS)-2,6,9,10,18-pentamethyl-5,8,11,16,20-pentaoxohexadecahydro-1H,5H,16H-dipyrrolo[2,1-c:2′,1′-L][1]oxa[4,7,10,13]tetraazacyclohexadecin-17-yl)propanamide |  | 37.9% |  |
| (S)-3-(3,5-difluorophenyl)-2-(3-(4-ethylphenyl)ureido)-N-((2S,6S,9S,11aS,17S,18S,20aS)-9-((R)-1-hydroxyethyl)-2,6,10,18-tetramethyl-5,8,11,16,20-pentaoxohexadecahydro-1H,5H,16H-dipyrrolo[2,1-c:2′,1′-l][1]oxa[4,7,10,13]tetraazacyclohexadecin-17-yl)propanamide |  | 43% |  |
| (S)-3-(3,5-difluorophenyl)-2-(3-(p-tolyl)ureido)-N-((2R,6S,8aS,14aS,20S,21S,23aS)-2,6,21-trimethyl-5,8,14,19,23-pentaoxooctadecahydro-1H,5H,14H,19H-pyrido[2,1-i]dipyrrolo[2,1-c:2′,1′-l][1]oxa[4,7,10,13]tetraazacyclohexadecin-20-yl)propanamide | 39% | 52.2% |  |
| (S)-3-(3,5-difluorophenyl)-2-(3-(p-tolyl)ureido)-N-((6S,8aS,14aS,20S,23aS)-2,2,6-trimethyl-5,8,14,19,23-pentaoxooctadecahydro-1H,5H,14H,19H-pyrido[2,1-i]dipyrrolo[2,1-c:2′,1′-l][1]oxa[4,7,10,13]tetraazacyclohexadecin-20-yl)propanamide |  | 34.7% |  |
